Measurements reported in PubChem BioAssay AID602196 (INSERM, 2012)
Here is a random part of about 23,000 reagents. In the full data, 455 (2%) are marked active. 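Active includes both protection and sensitisation; some change values fall well beyond the stated -50 to +50 range.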 Further read-outs or replicates are left out here. Not given: the amount of reagent.

Test: 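Modifiers of cisplatin sensitivity in A549 cells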
System: human A549 lung cancer cells
Reagent: siRNA pair against human genes
Time to read-out: 48 h transfection before cisplatin; time from cisplatin to read-out not stated
Challenge: cisplatin at a dose killing half of control-siRNA cells; exact dose and duration not given
Detection: 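Shift in cisplatin death relative to control siRNA, from -50 (all cells die) to +50 (no cells die); siRNAs harmful on their own scored 0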
Reading the numbers: two-siRNA summed score (-2 to +2): higher = both siRNAs protect from cisplatin killing; -2 means both sensitise
Call rule: 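Each siRNA scores 0 if harmful alone by LDH or WST-1, otherwise +1 if it reduces and -1 if it increases cisplatin killing; a gene is active when both siRNAs agree (sum +2 or -2)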
Calls: active = both siRNAs shift cisplatin killing the same way; inactive = no consistent shift, or siRNA harmful alone

Depletion of PSG4 resulted in: two-siRNA summed score (-2 to +2) = 0; inactive.
After knock-down of SAG the results were two-siRNA summed score (-2 to +2) = -1; inactive.
Silencing of LOC440852 came out at: two-siRNA summed score (-2 to +2) = 0; inactive.
After knock-down of SLC6A11 the results were two-siRNA summed score (-2 to +2) = 0; inactive.
Depletion of ACADL gave: two-siRNA summed score (-2 to +2) = 0; inactive.
For CAMK2D, the entry reads two-siRNA summed score (-2 to +2) = 1; inactive.
Against CAMSAP3, the values are two-siRNA summed score (-2 to +2) = 0; inactive.
Silencing of AP2A2 gave: two-siRNA summed score (-2 to +2) = 1; inactive.
After knock-down of S100A10 the results were two-siRNA summed score (-2 to +2) = 0; inactive.
CHLSN gave two-siRNA summed score (-2 to +2) = 0; inactive.
For APOM the deposit lists two-siRNA summed score (-2 to +2) = 0; inactive.
After knock-down of PBK the results were two-siRNA summed score (-2 to +2) = 0; inactive.
LOC402382 scored two-siRNA summed score (-2 to +2) = 2; active.
Depletion of LOC390020 gave: two-siRNA summed score (-2 to +2) = 0; inactive.
With knock-down of ATP13A1, the screen gave two-siRNA summed score (-2 to +2) = -1; inactive.
Depletion of SLC60A2 came out at: two-siRNA summed score (-2 to +2) = 0; inactive.
Silencing of HS2ST1 resulted in: two-siRNA summed score (-2 to +2) = 0; inactive.
Depletion of EVA1A resulted in: two-siRNA summed score (-2 to +2) = 1; inactive.
Against LOC392557 the deposit lists two-siRNA summed score (-2 to +2) = 1; inactive.
With knock-down of LOC440710, the record shows two-siRNA summed score (-2 to +2) = 0; inactive.
For SORBS3 the deposit lists two-siRNA summed score (-2 to +2) = 0; inactive.
